Assay results: PubChem BioAssay AID1347076 (National Center for Advancing Translational Sciences (NCATS), 2019)
Values joined by “and” are separate entries in the source; they are usually repeats but may differ in a detail not shown here. Equal entries are not always repeated. Hit rate of the full screen: of about 400,000 compounds, about 13,000 (3.2%) were called active. The inconclusive results got no clear call from the source; some entries with a clear call stand among them for comparison. Calls follow the shape of the dose curve; as a rule, active = well fitted cell-killing curve with a large enough effect; inconclusive = small, poorly fitted or top-dose-only effect, or effect the other way; inactive = flat fitted curve, though single readings scatter. Potencies beside an inconclusive call are fits to weak or partial responses and may not hold up.
Potency is read from the fitted curve at half-maximal effect.

Assay: qHTS assay for MDR1-selective chemotherapeutics: Primary screen using the drug-selected MDR subline cells KB-V1; also: nearly all actives have a fitted effect of over 60% in size
Details: KB-V1 MDR cells viability, CellTiter-Glo, 72 h; series mostly up to 46.1 µM
How it was run: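 qHTS viability screen in drug-selected KB-V1 MDR cells: 72 h compound treatment at 37 degrees C, ATP luminescence end point.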
For `COc1ccccc1N(CC(O)COc1c(C)cc(C)cc1C)S(=O)(=O)c1ccccc1` (stereo not given), the Potency was active: 8.2 µM.
In the case of `CCC(Oc1ccccc1)C(=O)Nc1cc(Cl)ccc1-n1cncn1` (stereo not given), the Potency is reported as inconclusive: 16.4 µM [cytotoxic, partial curve, poor fit].
For `C/C(=N\Nc1ccc(C(F)(F)F)cn1)c1ccncc1`, the Potency was inconclusive: 9.2 µM [cytotoxic, partial curve, poor fit].
With `Cc1c(Cc2ccccc2)sc(/N=C/c2c(O)ccc3ccccc23)c1C(N)=O` the Potency was inconclusive: 25.9 µM [cytotoxic, single point].
With `O=C(COC(=O)/C=C/c1ccc2c(c1)OCO2)NCc1ccccc1` the Potency was “inactive”.
With `CCc1ccc(NC(=O)c2sc3nc(C)nc(N4CCN(c5ccccn5)CC4)c3c2C)cc1` the Potency was inconclusive: 6.51 µM [cytotoxic, partial curve].
With `COc1ccc(S(=O)(=O)Nc2ccc(F)c(Cl)c2)cc1OC` the Potency was “inactive”.
For `Cn1c(=O)c2c(nc(-n3ccnc3)n2C)n(C)c1=O`, the Potency was inconclusive: 11.6 µM [rising, partial curve].
For `c1coc(CNc2ncnc3c2[nH]c2ccccc23)c1`, the Potency was “inactive”.
In the case of `CCN(CC)S(=O)(=O)c1ccc(Cl)c(C(=O)N2CCc3ccccc32)c1`, the Potency is reported as inconclusive: 29.1 µM [cytotoxic, single point].
In the case of `CC(=O)Nc1ccc(Nc2c3ccccc3nc3ccccc23)cc1`, the Potency is reported as inconclusive: 29.1 µM [cytotoxic, single point].
For `COc1cccc(/C=C/C(=O)Nc2ccccc2N2CCOCC2)c1`, the Potency was inconclusive: 6.51 µM [cytotoxic, partial curve].
With `CCN1CCN(Cc2c(C(=O)N/N=C(\C)c3ccc(Cl)cc3)nnn2-c2nonc2N)CC1` the Potency was inconclusive: 16.4 µM [rising, single point].
In the case of `CC(C)c1ccc(S(=O)(=O)c2cn(CC(=O)Nc3ccc(F)cc3)c3ccccc3c2=O)cc1`, the Potency is reported as inconclusive: 29.1 µM [rising, single point].
For `O=C(c1ccccc1F)N(Cc1ccccc1)Cc1ccccc1`, the Potency was inconclusive: 29.1 µM [cytotoxic, partial curve, poor fit].
With `CCn1cc(C(=O)NCc2ccc3c(c2)OCO3)c(=O)c2cc(S(=O)(=O)N(C)C)ccc21` the Potency was inconclusive: 10.3 µM [cytotoxic, partial curve, poor fit].
With `C/C(=N\Nc1nc2ccccc2[nH]1)c1ccc(Cl)s1` the Potency was active: 20.6 µM.
For `O=C(CN1C(=O)CC(c2ccco2)Sc2ccccc21)Nc1cccc(C(F)(F)F)c1` (stereo not given), the Potency was active: 20.6 µM.
For `COc1cc2ncnc(NCc3cccs3)c2cc1OC`, the Potency was inconclusive: 13 µM [cytotoxic, partial curve].
For `C=CCOC(=O)C1=C[C@H](c2ccc(Br)cc2)[C@@H](CCCO)[C@H](OCC)O1`, the Potency was inconclusive: 29.1 µM [cytotoxic, partial curve, poor fit].
In the case of `COc1ccc(C(C)C)cc1S(=O)(=O)n1ccnc1C`, the Potency is reported as inconclusive: 20.6 µM [cytotoxic, partial curve, poor fit].
In the case of `COc1ccc(CCNCc2c(-c3ccccc3)n(C)c3ccccc23)cc1`, the Potency is reported as inconclusive: 20.6 µM [cytotoxic, single point].
With `NC(=O)CSc1ccc(F)cc1` the Potency was “inactive”.
In the case of `CC[C@]12c3[nH]c4ccc(Cl)cc4c3CCN1C(=O)[C@@H](CC(=O)NC/C=C(\C)CCC=C(C)C)C[C@@H]2C(=O)N1CCN(C(=O)C2CC2)CC1`, the Potency is reported as inconclusive: 29.1 µM [cytotoxic, single point].
For `COc1ccc(Cl)cc1NC(=O)CN1c2ccccc2CC1C` (stereo not given), the Potency was active: 14.6 µM.
For `CC1(C)CC(=O)C2=C(C1)OC(N)=C(C#N)C2c1cn(-c2ccccc2)nc1-c1ccccc1` (stereo not given), the Potency was “inactive”.
In the case of `O=C(O)CCn1c(-c2ccccn2)nc2ccccc21`, the Potency is reported as inconclusive: 18.4 µM [rising, single point].
In the case of `Oc1cccc(C=NNc2ccccn2)c1`, the Potency is reported as inconclusive: 25.9 µM [cytotoxic, partial curve, poor fit].
With `Cc1cc(Nc2ccc(N3CCC(C)CC3)cc2)n2ncnc2n1` the Potency was inconclusive: 20.6 µM [cytotoxic, single point].
In the case of `COc1cc2[nH]c(=S)nc(NCCc3ccc(S(N)(=O)=O)cc3)c2cc1OC`, the Potency is reported as inconclusive: 29.1 µM [rising, single point].
With `COc1ccc(C(=O)N2CC(=O)Nc3ccc(C)cc3C2c2ccc(F)cc2)c(OC)c1` (stereo not given) the Potency was “inactive”.
For `Cc1oc2nc(SCC(=O)N3CCCCC3)nc(N)c2c1C`, the Potency was inconclusive: 8.2 µM [cytotoxic, partial curve, poor fit].
For `Cc1c(Cc2ccccc2)sc(NC(=O)c2ccco2)c1C(N)=O`, the Potency was inconclusive: 9.2 µM [cytotoxic, partial curve].
With `COc1ccccc1C(=O)NCC(=O)NNC(=O)c1cccs1` the Potency was inconclusive: 0.0082 µM [rising, full curve, poor fit].
In the case of `CC(C)(C)OC(=O)COc1cc(OCC(=O)OC(C)(C)C)c2c(=O)cc(-c3ccccc3)oc2c1`, the Potency is reported as active: 20.6 µM.
With `COc1ccc(NC(=O)c2ccc(-c3ccccc3)cc2)cc1S(=O)(=O)N1CCOCC1` the Potency was inconclusive: 1.84 µM [cytotoxic, full curve, poor fit].
In the case of `CC(C)(C)[C@H]1COC(=O)[C@@H](NC(=O)OCC2c3ccccc3-c3ccccc32)C/C=C\C[C@@H](CC(=O)N[C@@H](CO)Cc2ccccc2)C(=O)N1`, the Potency is reported as inconclusive: 29.1 µM [rising, single point].
In the case of `O=Cc1ccc(N2CCOCC2)cc1`, the Potency is reported as “inactive”.
With `CCOC(=O)C(/C(N)=N/C(=O)Nc1ccccc1)=C(\C)O` the Potency was inconclusive: 18.4 µM [rising, partial curve].
For `CCCCCCSc1cccc(-c2nc3ccccn3c2NCc2ccccc2)c1`, the Potency was inconclusive: 29.1 µM [cytotoxic, single point] and inconclusive: 23.1 µM [cytotoxic, single point].
With `Cc1ccc(Cl)cc1N1CCN(C(=O)Cc2c(C(=O)O)c(C)cn2C)CC1` the Potency was inconclusive: 18.4 µM [rising, single point].
For `Cc1[nH]c2ccc(F)cc2c1CCN(Cc1ccncc1)C(=S)Nc1ccccc1`, the Potency was inconclusive: 11.6 µM [cytotoxic, partial curve].
For `O=C(NCc1ccc(Cl)cc1)C(=O)NCC(c1cccnc1)N1CCN(c2ccc(F)cc2)CC1` (stereo not given), the Potency was inconclusive: 4.61 µM [cytotoxic, full curve].
With `COc1ccc(-c2ccc3c(c2)S(=O)(=O)c2cccc(C(=O)NC4CCCC4)c2C3=O)cc1OC` the Potency was “inactive”.
In the case of `O=C1OCCN1CC(=O)N1CCc2c([nH]c3ccccc23)C1c1ccccn1` (stereo not given), the Potency is reported as inconclusive: 13 µM [rising, partial curve, poor fit].
With `COc1ccc(NC(=O)c2cnn(-c3ccccc3)c2C)cc1OC` the Potency was inconclusive: 16.4 µM [cytotoxic, single point].
For `CCN1CCN(Cc2ccc(NC(=O)c3cc(NC(=O)c4cc(C)on4)cc(OC)c3)cc2C(F)(F)F)CC1`, the Potency was inconclusive: 32.6 µM [cytotoxic, single point].
In the case of `COc1ccc(N(CC(=O)Nc2ccc(F)c(Cl)c2)S(=O)(=O)c2c(C)noc2C)cc1`, the Potency is reported as inconclusive: 18.4 µM [cytotoxic, partial curve].
In the case of `C=CCOc1ccccc1CN(C(=O)CCl)c1ccc2c(c1)OCO2`, the Potency is reported as inconclusive: 29.1 µM [cytotoxic, single point].
With `CCCCC(CC)C(=O)NCc1ccc(F)cc1` (stereo not given) the Potency was inconclusive: 20.6 µM [cytotoxic, single point].
With `CN1CCN(NC(=S)NC(C)(C)CC(C)(C)C)CC1` the Potency was inconclusive: 32.6 µM [cytotoxic, partial curve, poor fit].
With `O=C(Nc1cccc(Br)c1)c1ccn[nH]1` the Potency was inconclusive: 7.94 µM [cytotoxic, partial curve, poor fit].
For `O=C(CSc1nc(=O)n2cc(Cl)ccc2n1)Nc1cccc2ccccc12`, the Potency was active: 25.9 µM.
With `Cc1ccc(S(=O)(=O)c2nc(-c3ccco3)oc2NCC2CCCO2)cc1` (stereo not given) the Potency was inconclusive: 10.3 µM [cytotoxic, partial curve].
For `c1ccc(CSc2nnc(C3CCNCC3)o2)cc1`, the Potency was “inactive”.
For `CCN(CC)S(=O)(=O)c1ccc2oc(C(=O)NCCCN3CCOCC3)c(C)c2c1`, the Potency was “inactive”.
In the case of `CC(=O)c1ccccc1NS(=O)(=O)c1c(C)nn(-c2ccccc2)c1C`, the Potency is reported as active: 9.2 µM.
In the case of `O=C(Nc1ccccc1)N1CCCN(Cc2c(F)cccc2Cl)CC1`, the Potency is reported as “inactive”.
With `O=C(NCCc1ccc2c(c1)OCCO2)c1cc(F)cc(F)c1` the Potency was active: 11.6 µM.
In the case of `Cc1cc(N2CCCC(C(=O)Nc3cccc4ccccc34)C2)n2ncnc2n1` (stereo not given), the Potency is reported as inconclusive: 20.6 µM [cytotoxic, single point].
In the case of `Cc1ccc2c(c1)C(=O)N1[C@H]3c4ccccc4OC[C@@H]3[C@H](c3ccccc3)[C@]1(C)C(=O)N2`, the Potency is reported as inconclusive: 29.1 µM [rising, single point].
With `COC(=O)NC1(C(F)(F)F)C(=O)NC(C)=C1C(=O)OC` (stereo not given) the Potency was inconclusive: 16.4 µM [rising, single point].
For `COc1ccc(C(c2c(NC(=O)c3ccco3)sc(C)c2C)N2CCOCC2)cc1` (stereo not given), the Potency was inconclusive: 6.51 µM [cytotoxic, partial curve].
In the case of `Cc1cc(C)c(S(=O)(=O)N2CCN(S(=O)(=O)N3CCCCCC3)CC2)c(C)c1`, the Potency is reported as inconclusive: 4.11 µM [cytotoxic, full curve].
In the case of `Cc1ccc(NC(=O)CN2CCCCCC2)c(Br)c1`, the Potency is reported as inconclusive: 11.6 µM [cytotoxic, partial curve, poor fit].
